In the assay the target is T1, Flag-Aurora-A (UniProt O14965).
T1 sequence: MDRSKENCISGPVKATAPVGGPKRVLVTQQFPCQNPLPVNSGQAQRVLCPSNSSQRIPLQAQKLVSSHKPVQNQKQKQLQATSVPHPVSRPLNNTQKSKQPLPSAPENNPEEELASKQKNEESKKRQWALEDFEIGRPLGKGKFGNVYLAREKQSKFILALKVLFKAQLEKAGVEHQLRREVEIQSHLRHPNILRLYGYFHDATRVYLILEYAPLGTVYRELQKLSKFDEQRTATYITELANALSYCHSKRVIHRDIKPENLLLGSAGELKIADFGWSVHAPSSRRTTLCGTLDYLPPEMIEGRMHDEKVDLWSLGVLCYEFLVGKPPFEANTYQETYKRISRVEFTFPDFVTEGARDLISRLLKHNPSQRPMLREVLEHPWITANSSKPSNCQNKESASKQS
The assay is described as follows: co-IP; HEK293 cells co-transfected with pcDNA3.1-GADD45A and Flag-Aurora-A (or empty Flag vector); anti-Flag immunoprecipitates blotted with anti-GADD45A or anti-Flag antibodies.

These are yes or no findings as the source states them, for the method shown. In cells and extracts the contact can be indirect. Some entries that bind do so weakly or less than the wild type. Sequences can lack the tags named with a protein.

B1: GADD45A (Growth arrest and DNA-damage-inducible gene 45 alpha) (protein, UniProt P24522-1 1-165)
chain: MTLEEFSAGEQKTERMDKVGDALEEVLSKALSQRTITVGVYEAAKLLNVDPDNVVLCLLAADEDDDRDVALQIHFTLIQAFCCENDINILRVSNPGRLAELLLLETDAGPAASEGAEQPPDLHCVLVTNPHSSQWKDPALSQLICFCRESRYMDQWVPVINLPER
For the molecule B1, the binding entry is reported as “binds”.

The values above are taken from publication PMC2265528.
